Measured values published in patent US20130243753A1 (Genentech, published 2013).
Results are given in words; binding and its absence hold for the method and conditions named. Some results given as binding are weak or reduced against the parent protein; the word gives no strength.

By UniProt entry, the sequences of proteins in these tests, tags left out. Where a name states a change or a piece, a line headed by the entry shows the natural chain unless it says otherwise.
UniProt P30530: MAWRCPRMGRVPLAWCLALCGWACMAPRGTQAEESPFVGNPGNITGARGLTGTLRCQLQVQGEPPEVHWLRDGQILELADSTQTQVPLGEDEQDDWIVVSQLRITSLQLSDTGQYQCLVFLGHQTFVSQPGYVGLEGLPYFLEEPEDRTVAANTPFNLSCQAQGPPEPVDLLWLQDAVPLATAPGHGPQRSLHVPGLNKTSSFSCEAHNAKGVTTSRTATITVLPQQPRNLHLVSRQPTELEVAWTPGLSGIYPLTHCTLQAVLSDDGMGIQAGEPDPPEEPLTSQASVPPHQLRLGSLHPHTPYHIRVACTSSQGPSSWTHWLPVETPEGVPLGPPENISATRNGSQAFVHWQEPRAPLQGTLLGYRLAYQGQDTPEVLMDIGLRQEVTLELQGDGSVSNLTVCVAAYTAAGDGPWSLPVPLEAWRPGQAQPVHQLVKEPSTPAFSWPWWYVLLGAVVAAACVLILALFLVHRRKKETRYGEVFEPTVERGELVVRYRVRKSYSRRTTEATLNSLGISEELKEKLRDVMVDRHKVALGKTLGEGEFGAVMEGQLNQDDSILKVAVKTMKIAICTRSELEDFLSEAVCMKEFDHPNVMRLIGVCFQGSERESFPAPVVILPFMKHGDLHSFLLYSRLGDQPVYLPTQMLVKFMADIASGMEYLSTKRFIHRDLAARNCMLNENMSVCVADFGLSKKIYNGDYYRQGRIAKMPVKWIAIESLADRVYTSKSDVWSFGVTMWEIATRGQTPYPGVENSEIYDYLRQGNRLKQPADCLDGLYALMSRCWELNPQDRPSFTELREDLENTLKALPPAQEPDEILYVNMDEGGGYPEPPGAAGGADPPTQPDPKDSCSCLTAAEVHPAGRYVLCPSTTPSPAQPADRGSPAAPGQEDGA

Biological target: human Axl on the cell surface (HUVEC, A549, H1299, Baf3Axl cells) (human) (UniProt P30530)
Experiment: FACS on HUVEC; Gas6 on the cell surface detected with biotinylated anti-Gas6 and streptavidin-PE; Gas6 concentration not shown

B1: Mouse recombinant Gas6 (ligand, UniProt Q61592 115-673, looked up)
chain: DQCTPNPCDKKGTHICQDLMGNFFCVCTDGWGGRLCDKDVNECVQKNGGCSQVCHNKPGSFQCACHSGFSLASDGQTCQDIDECTDSDTCGDARCKNLPGSYSCLCDEGYTYSSKEKTCQDVDECQQDRCEQTCVNSPGSYTCHCDGRGGLKLSPDMDTCEDILPCVPFSMAKSVKSLYLGRMFSGTPVIRLRFKRLQPTRLLAEFDFRTFDPEGVLFFAGGRSDSTWIVLGLRAGRLELQLRYNGVGRITSSGPTINHGMWQTISVEELERNLVIKVNKDAVMKIAVAGELFQLERGLYHLNLTVGGIPFKESELVQPINPRLDGCMRSWNWLNGEDSAIQETVKANTKMQCFSVTERGSFFPGNGFATYRLNYTRTSLDVGTETTWEVKVVARIRPATDTGVLLALVGDDDVVPISVALVDYHSTKKLKKQLVVLAVEDVALALMEIKVCDSQEHTVTVSLREGEATLEVDGTKGQSEVSTAQLQERLDTLKTHLQGSVHTYVGGLPEVSVISAPVTAFYRGCMTLEVNGKILDLDTASYKHSDITSHSCPPVEHAT
binding: binds
